Results deposited as PubChem BioAssay AID1259254 (NCATS, 2017)
Assay: 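Finding genes that stop cells copying their DNA twice in one cycle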 (primary screen). System: human HCT116 colorectal cancer cells. Knock-down reagent: single siRNA against human genes. Timing: 3 days. Detection: 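Nuclei stained with Hoechst and imaged; cell-cycle phase assigned by DNA content; G2 share scaled per plate, non-targeting siRNA 0%, GMNN siRNA 100%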. Reading the numbers: G2 robust z-score and G2 cells, % of GMNN control: higher = more G2 cells, more excess DNA replication. Hit rule: 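An siRNA counts as active if its G2 robust z-score lies at least 5 MADs above the screen median; here such calls match roughly 38% of GMNN control or more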.
This is a random part of about 59,000 reagents tested. Of all reagents, about 1,550 (2.6%) are marked active. 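G2 share is only a proxy for re-replication; each gene was hit by three separate siRNAs, and active genes were retested.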 The numbers tell different reagents against one gene apart. Not all columns of the deposit are shown. Not stated in the record: the amount of reagent.

After knock-down of LCT (lactase) #1, the screen gave G2 robust z-score 2.97; G2 cells, % of GMNN control 23.9; inactive. LCT (lactase) #2 gave G2 robust z-score 10.8; G2 cells, % of GMNN control 79.2; active. Against LCT (lactase) #3, the values are G2 robust z-score -0.764; G2 cells, % of GMNN control -2.4; inactive. For PSMD9 (proteasome 26S subunit, non-ATPase 9) #1, the values are G2 robust z-score 3.96; G2 cells, % of GMNN control 30.8; inactive. After knock-down of PSMD9 (proteasome 26S subunit, non-ATPase 9) #2 the results were G2 robust z-score 3.22; G2 cells, % of GMNN control 25.6; inactive. PSMD9 (proteasome 26S subunit, non-ATPase 9) #3 showed G2 robust z-score 1.09; G2 cells, % of GMNN control 10.7; inactive.

After knock-down of ARX (aristaless related homeobox) #1 the results were G2 robust z-score 2.63; G2 cells, % of GMNN control 21.5; inactive. With knock-down of ARX (aristaless related homeobox) #2, the screen gave G2 robust z-score 1.21; G2 cells, % of GMNN control 11.5; inactive. Knock-down of ARX (aristaless related homeobox) #3 gave: G2 robust z-score 2.49; G2 cells, % of GMNN control 20.5; inactive. Knock-down of SCRN1 (secernin 1) #1 resulted in: G2 robust z-score 0.796; G2 cells, % of GMNN control 8.57; inactive. SCRN1 (secernin 1) #2 scored G2 robust z-score -0.149; G2 cells, % of GMNN control 1.92; inactive. For SCRN1 (secernin 1) #3, the values are G2 robust z-score -0.153; G2 cells, % of GMNN control 1.89; inactive.

Depletion of TIMM8B (translocase of inner mitochondrial membrane 8 homolog B) #1 gave: G2 robust z-score -0.0168; G2 cells, % of GMNN control 2.85; inactive. TIMM8B (translocase of inner mitochondrial membrane 8 homolog B) #2 showed G2 robust z-score -0.403; G2 cells, % of GMNN control 0.133; inactive. With knock-down of TIMM8B (translocase of inner mitochondrial membrane 8 homolog B) #3, the screen gave G2 robust z-score -0.0998; G2 cells, % of GMNN control 2.27; inactive. FOXN1 (forkhead box N1) #1 showed G2 robust z-score 1.85; G2 cells, % of GMNN control 16; inactive. FOXN1 (forkhead box N1) #2 scored G2 robust z-score -1.28; G2 cells, % of GMNN control -6.01; inactive. FOXN1 (forkhead box N1) #3 scored G2 robust z-score -0.633; G2 cells, % of GMNN control -1.49; inactive.

Copied from the list.
Under “G2 cells, % of GMNN control”, ARX (aristaless related homeobox) #2 is entered as 11.5
ARX (aristaless related homeobox) #1, outcome = inactive
ARX (aristaless related homeobox) #3, outcome: inactive
LCT (lactase) #1, G2 robust z-score: 2.97
Value of FOXN1 (forkhead box N1) #3 in “G2 cells, % of GMNN control”: -1.49

The listing continues:
With knock-down of ACTN3 (actinin alpha 3) #1 the results were G2 robust z-score -0.999; G2 cells, % of GMNN control -4.06; inactive. For ACTN3 (actinin alpha 3) #2 the deposit lists G2 robust z-score 0.355; G2 cells, % of GMNN control 5.47; inactive. For ACTN3 (actinin alpha 3) #3, the values are G2 robust z-score -1.29; G2 cells, % of GMNN control -6.12; inactive. For KSR2 (kinase suppressor of ras 2) #1, the entry reads G2 robust z-score 1.27; G2 cells, % of GMNN control 11.9; inactive. KSR2 (kinase suppressor of ras 2) #2 gave G2 robust z-score -0.646; G2 cells, % of GMNN control -1.57; inactive. With knock-down of KSR2 (kinase suppressor of ras 2) #3 the results were G2 robust z-score -0.821; G2 cells, % of GMNN control -2.81; inactive.

Against OR1L8 (olfactory receptor family 1 subfamily L member 8) #1 the deposit lists G2 robust z-score 0.307; G2 cells, % of GMNN control 5.13; inactive. After knock-down of OR1L8 (olfactory receptor family 1 subfamily L member 8) #2, the record shows G2 robust z-score -0.551; G2 cells, % of GMNN control -0.91; inactive. After knock-down of OR1L8 (olfactory receptor family 1 subfamily L member 8) #3, the record shows G2 robust z-score -0.396; G2 cells, % of GMNN control 0.184; inactive. GSAP (gamma-secretase activating protein) #1 showed G2 robust z-score -0.736; G2 cells, % of GMNN control -2.21; inactive. Against GSAP (gamma-secretase activating protein) #2, the values are G2 robust z-score 0.0302; G2 cells, % of GMNN control 3.18; inactive. Against GSAP (gamma-secretase activating protein) #3, the values are G2 robust z-score -0.776; G2 cells, % of GMNN control -2.49; inactive.
